Experimental data reported in the supplement of paper PMC4862054.
Most values lie at the level of the controls, where differences are scatter.

Tests used:
Assay in all cases: normalised response (% of control), CellTox Green; higher = less cell death (100 = DMSO, 0 = benzethonium chloride kill control)
Details in all cases: incubation time: 72 h
BT-474 = tested on: BT-474
Experimental: (§1)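 DSRT, 72 h incubation, CellTox Green / CellTiter-Glo readout. Signal is normalised to DMSO and benzethonium chloride controls. Value is the normalised response at the lowest tested concentration.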

HDQ-P1 = tested on: HDQ-P1
Experimental: as §1

HCC1599 = tested on: HCC1599
Experimental: as §1

BT-549 = tested on: BT-549
Experimental: as §1

CAL-51 = tested on: CAL-51
Experimental: as §1

HCC1143 = tested on: HCC1143
Experimental: as §1

MDA-MB-468 = tested on: MDA-MB-468
Experimental: as §1

MDA-MB-231 = tested on: MDA-MB-231
Experimental: as §1

DU-4475 = tested on: DU-4475
Experimental: as §1

MDA-MB-453 = tested on: MDA-MB-453
Experimental: as §1

CAL-120 = tested on: CAL-120
Experimental: as §1

CAL-85-1 = tested on: CAL-85-1
Experimental: as §1

CAL-148 = tested on: CAL-148
Experimental: as §1

HCC1937 = tested on: HCC1937
Experimental: as §1

MCF-10A = tested on: MCF-10A
Experimental: as §1

Hs578T = tested on: Hs578T
Experimental: as §1

MFM-223 = tested on: MFM-223
Experimental: as §1

MDA-MB-436 = tested on: MDA-MB-436
Experimental: as §1

`Cn1cc(C2=Nc3cc(NC(=O)C(N)C4CCCCC4)cc4c3C2=CNNC4=O)cn1` (configuration not stated) (1 nM) was tested, and the normalised response (BT-474) was 84.2%, the normalised response (HDQ-P1) was 87.7% and the normalised response (HCC1599) was 91.1%. For the same compound, the normalised response (BT-549) was 102%, the normalised response (CAL-51) was 102% and the normalised response (HCC1143) was 111%. For the same compound, the normalised response (MDA-MB-468) was 89.9%, the normalised response (MDA-MB-231) was 96.7% and the normalised response (DU-4475) was 94.7%. For the same compound, the normalised response (MDA-MB-453) was 93.6%, the normalised response (CAL-120) was 100% and the normalised response (CAL-85-1) was 95.1%. For the same compound, the normalised response (CAL-148) was 85%, the normalised response (HCC1937) was 66.6% and the normalised response (MCF-10A) was 96.7%. It also gave a normalised response (Hs578T) of 107% and a normalised response (MFM-223) of 81.1%.

In the case of `CCCCC/C=C/C=C1/C(=O)C=C[C@@H]1C/C=C\CCCC(=O)O` [15D-PGJ2] (0.08 nM), the normalised response (BT-474) is reported as 101%, the normalised response (HDQ-P1) is reported as 105% and the normalised response (HCC1599) is reported as 123%. The normalised response (BT-549) was 93.5%, the normalised response (CAL-51) was 106% and the normalised response (HCC1143) was 113%. The normalised response (MDA-MB-468) was 105%, the normalised response (MDA-MB-231) was 114% and the normalised response (DU-4475) was 112%. For the same compound, the normalised response (MDA-MB-453) was 106%, the normalised response (CAL-120) was 104% and the normalised response (CAL-85-1) was 97.3%. It also gave a normalised response (HCC1937) of 74.5%, a normalised response (MCF-10A) of 117% and a normalised response (Hs578T) of 118%. The normalised response (MFM-223) was 95.1%.

`CO[C@H]1/C=C\C=C(/C)C(=O)NC2=CC(=O)C(NCCN(C)C)=C(C[C@@H](C)C[C@H](OC)[C@H](O)[C@@H](C)/C=C(\C)[C@@H]1OC(N)=O)C2=O` [Alvespimycin] (0.1 nM) gave a normalised response (BT-474) of 103%, a normalised response (HDQ-P1) of 102% and a normalised response (HCC1599) of 100%. It also gave a normalised response (BT-549) of 99.7%, a normalised response (CAL-51) of 69.9% and a normalised response (MDA-MB-436) of 62.5%. The normalised response (HCC1143) was 80%, the normalised response (MDA-MB-468) was 97.1% and the normalised response (MDA-MB-231) was 107%. The normalised response (DU-4475) was 98.7%, the normalised response (MDA-MB-453) was 104% and the normalised response (CAL-120) was 105%. The normalised response (CAL-85-1) was 102%, the normalised response (CAL-148) was 104% and the normalised response (MCF-10A) was 106%. The normalised response (Hs578T) was 106% and the normalised response (MFM-223) was 94%.

`CO[C@@H](C(=O)N1Cc2[nH]nc(NC(=O)c3ccc(N4CCN(C)CC4)cc3)c2C1)c1ccccc1` [Danusertib] (1 nM) gave a normalised response (BT-474) of 98.9%, a normalised response (HCC1599) of 98.9% and a normalised response (BT-549) of 101%. For the same compound, the normalised response (CAL-51) was 120%, the normalised response (HCC1143) was 94.3% and the normalised response (MDA-MB-468) was 124%. It also gave a normalised response (MDA-MB-231) of 104%, a normalised response (DU-4475) of 100% and a normalised response (MDA-MB-453) of 108%. The normalised response (CAL-120) was 99.8%, the normalised response (CAL-85-1) was 111% and the normalised response (CAL-148) was 99.8%. For the same compound, the normalised response (HCC1937) was 75.8%, the normalised response (MCF-10A) was 104% and the normalised response (MFM-223) was 99.5%.

`CNC(=O)c1ccc(N2C(=S)N(c3ccc(C#N)c(C(F)(F)F)c3)C(=O)C2(C)C)cc1F` [Enzalutamide] (1 nM) showed a normalised response (BT-474) of 102%, a normalised response (HDQ-P1) of 93.2% and a normalised response (HCC1599) of 111%. The normalised response (BT-549) was 98.2%, the normalised response (CAL-51) was 116% and the normalised response (HCC1143) was 124%. It also gave a normalised response (MDA-MB-468) of 89.1%, a normalised response (DU-4475) of 106% and a normalised response (MDA-MB-453) of 102%. It also gave a normalised response (CAL-120) of 102%, a normalised response (CAL-85-1) of 100% and a normalised response (CAL-148) of 102%. For the same compound, the normalised response (HCC1937) was 73.4%, the normalised response (MCF-10A) was 93.4% and the normalised response (Hs578T) was 92.4%. It also gave a normalised response (MFM-223) of 107%.

For `CCCc1cc(C)[nH]c(=O)c1CNC(=O)c1cc(-c2ccnc(N3CCN(C)CC3)c2)cc2c1cnn2C(C)C` [GSK343] (1 nM), the normalised response (BT-474) was 97.5%, the normalised response (HDQ-P1) was 97.2% and the normalised response (HCC1599) was 104%. It also gave a normalised response (BT-549) of 95.1%, a normalised response (CAL-51) of 94.3% and a normalised response (HCC1143) of 130%. The normalised response (MDA-MB-468) was 90.4%, the normalised response (MDA-MB-231) was 101% and the normalised response (DU-4475) was 96.6%. The normalised response (MDA-MB-453) was 101%, the normalised response (CAL-120) was 96.4% and the normalised response (CAL-85-1) was 106%. For the same compound, the normalised response (CAL-148) was 86%, the normalised response (HCC1937) was 93.7% and the normalised response (MCF-10A) was 96.5%. The normalised response (Hs578T) was 89.9% and the normalised response (MFM-223) was 98.8%.

In the case of `O=P1(NCCCl)OCCCN1CCCl` (configuration not stated) [Ifosfamide] (1 nM), the normalised response (BT-474) is reported as 96.3%, the normalised response (HCC1599) is reported as 101% and the normalised response (BT-549) is reported as 105%. It also gave a normalised response (CAL-51) of 91.3%, a normalised response (HCC1143) of 83% and a normalised response (MDA-MB-468) of 122%. The normalised response (MDA-MB-231) was 92.4%, the normalised response (DU-4475) was 97% and the normalised response (MDA-MB-453) was 100%. It also gave a normalised response (CAL-120) of 102%, a normalised response (CAL-85-1) of 103% and a normalised response (CAL-148) of 92.8%. For the same compound, the normalised response (HCC1937) was 81.9% and the normalised response (MFM-223) was 54.1%.

In the case of `COC(=O)C[C@](O)(CCCC(C)(C)O)C(=O)O[C@@H]1C(OC)=C[C@]23CCCN2CCc2cc4c(cc2[C@H]13)OCO4` [Omacetaxine] (1 nM), the normalised response (BT-474) is reported as 101%, the normalised response (HCC1599) is reported as 111% and the normalised response (BT-549) is reported as 91.9%. It also gave a normalised response (CAL-51) of 114%, a normalised response (MDA-MB-436) of 83.7% and a normalised response (HCC1143) of 98.5%. It also gave a normalised response (MDA-MB-468) of 98.4%, a normalised response (MDA-MB-231) of 120% and a normalised response (DU-4475) of 106%. The normalised response (MDA-MB-453) was 113%, the normalised response (CAL-120) was 101% and the normalised response (CAL-85-1) was 106%. It also gave a normalised response (CAL-148) of 108%, a normalised response (MCF-10A) of 107% and a normalised response (Hs578T) of 86.3%. For the same compound, the normalised response (MFM-223) was 97.6%.

`Cc1ccc([N+](=O)[O-])cc1S(=O)(=O)N(C)/N=C/c1cnc2ccc(Br)cn12` [PIK-75] (1 nM) gave a normalised response (BT-474) of 99.1%, a normalised response (HDQ-P1) of 94.7% and a normalised response (HCC1599) of 93.1%. For the same compound, the normalised response (BT-549) was 87.4%, the normalised response (CAL-51) was 74.3% and the normalised response (HCC1143) was 104%. It also gave a normalised response (MDA-MB-468) of 107%, a normalised response (MDA-MB-231) of 107% and a normalised response (DU-4475) of 98.4%. The normalised response (MDA-MB-453) was 96.2%, the normalised response (CAL-120) was 98.2% and the normalised response (CAL-85-1) was 114%. It also gave a normalised response (CAL-148) of 99.7%, a normalised response (HCC1937) of 83.1% and a normalised response (MCF-10A) of 101%. It also gave a normalised response (MFM-223) of 79.8%.

In the case of `Cc1cnc(NC(=O)Nc2cc(Br)c(C)cc2OC[C@@H]2CNCCO2)cn1` [Rabusertib] (0.1 nM), the normalised response (BT-474) is reported as 99.9%, the normalised response (HDQ-P1) is reported as 90.3% and the normalised response (HCC1599) is reported as 109%. For the same compound, the normalised response (BT-549) was 98.6%, the normalised response (CAL-51) was 121% and the normalised response (HCC1143) was 112%. For the same compound, the normalised response (MDA-MB-468) was 104%, the normalised response (MDA-MB-231) was 115% and the normalised response (DU-4475) was 107%. The normalised response (MDA-MB-453) was 110%, the normalised response (CAL-120) was 106% and the normalised response (CAL-85-1) was 106%. It also gave a normalised response (CAL-148) of 106%, a normalised response (HCC1937) of 115% and a normalised response (MCF-10A) of 109%. For the same compound, the normalised response (Hs578T) was 102% and the normalised response (MFM-223) was 104%.

With `CO[C@H]1C[C@@H]2CC[C@@H](C)[C@@](O)(O2)C(=O)C(=O)N2CCCC[C@H]2C(=O)O[C@H]([C@H](C)C[C@@H]2CC[C@@H](OC(=O)C(C)(CO)CO)[C@H](OC)C2)CC(=O)[C@H](C)/C=C(\C)[C@@H](O)[C@@H](OC)C(=O)[C@H](C)C[C@H](C)/C=C/C=C/C=C/1C` [Temsirolimus] (0.01 nM) the normalised response (BT-474) was 102%, the normalised response (HDQ-P1) was 99% and the normalised response (HCC1599) was 92.3%. For the same compound, the normalised response (BT-549) was 92%, the normalised response (CAL-51) was 118% and the normalised response (HCC1143) was 111%. For the same compound, the normalised response (MDA-MB-468) was 102%, the normalised response (MDA-MB-231) was 104% and the normalised response (DU-4475) was 98.4%. For the same compound, the normalised response (MDA-MB-453) was 109%, the normalised response (CAL-120) was 99.5% and the normalised response (CAL-85-1) was 103%. It also gave a normalised response (CAL-148) of 105%, a normalised response (HCC1937) of 111% and a normalised response (MCF-10A) of 103%. The normalised response (MFM-223) was 103%.
